Source: patent publication US7544657B2 (Zealand Pharma A/S, priority 2002, dated 2009)

Experiment: general procedure: Fmoc solid-phase peptide synthesis; TentaGel S-RAM
Conditions: whole synthesis, scale of the general procedure 1.0 g resin

H-His-Gly-Glu-Gly-Thr-Phe-Thr-Ser-Asp-Leu-Ser-Lys-Glu-Met-Glu-Glu-Glu-Ala-Val-Arg-Leu-Phe-Ile-Glu-Trp-Leu-Lys-Asn-Gly-Gly-Pro-Ser-Ser-Gly-Ala-Pro-Pro-Ser-Lys-Lys-Lys-Lys-Lys-Lys-NH2
final purity (method not given): better than 95%
